Source: PubChem BioAssay AID504808 (Drosophila RNAi Screening Center, 2011)
In all, the deposit lists about 21,000 reagents; shown is a random part of those that have a named target and a result. In the full data, 18 (0.084%) got an active call. 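Raw counts without plate normalisation, one of two replicates; the ratio scores behind the calls were not deposited.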 No sequences are given here. The record does not give: the amount of reagent, the time to read-out.

Screen: 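Genes whose loss lifts activity of an E2F-responsive reporter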 (primary screen)
System: Drosophila S2 cells
Reagents: long dsRNA against Drosophila genes
Read-out: 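Dual luciferase plate measurements; E2F-specific signal taken as firefly over Renilla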
Reading the numbers: E2F firefly: higher = more E2F reporter activity; Renilla normaliser: higher = more normaliser reporter signal
Active means: 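Called active if the normalised E2F reporter went up by over 50%; the cutoff is arbitrary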

How did the screen score tsh [DRSC03740]?
E2F firefly, rep 1: 1.07e5; Renilla normaliser, rep 1: 4596; call: inactive

For CG17782 [DRSC15267], what does the deposit list?
E2F firefly, rep 1: 95508; Renilla normaliser, rep 1: 5778; call: inactive

For Df31 [DRSC03738], what was measured?
E2F firefly, rep 1: 74466; Renilla normaliser, rep 1: 3624; call: inactive

For Apoltp [DRSC02508], what was measured?
E2F firefly, rep 1: 84526; Renilla normaliser, rep 1: 4006; call: inactive

With Or63a [DRSC08681], what was measured?
E2F firefly, rep 1: 1.06e5; Renilla normaliser, rep 1: 4102; call: inactive

How did the screen score CG13578 [DRSC04214]?
E2F firefly, rep 1: 1.00e5; Renilla normaliser, rep 1: 4683; call: inactive

2 neighbouring reagents from above, quoted:
tsh [DRSC03740]: E2F firefly, rep 1 = 1.07e5; Renilla normaliser, rep 1 = 4596; call = inactive
CG17782 [DRSC15267]: E2F firefly, rep 1 = 95508; Renilla normaliser, rep 1 = 5778; call = inactive

The results go on.
What is on record for DptB [DRSC06001]?
E2F firefly, rep 1: 1.49e5; Renilla normaliser, rep 1: 4910; call: inactive

With Tollo [DRSC11305], what does the deposit list?
E2F firefly, rep 1: 1.61e5; Renilla normaliser, rep 1: 7803; call: inactive

What is on record for GstD8 [DRSC16689]?
E2F firefly, rep 1: 1.43e5; Renilla normaliser, rep 1: 6215; call: inactive

What is on record for Ir62a [DRSC08250]?
E2F firefly, rep 1: 87440; Renilla normaliser, rep 1: 4149; call: inactive

How did the screen score RpL37A [DRSC02899]?
E2F firefly, rep 1: 1.28e5; Renilla normaliser, rep 1: 5177; call: inactive

Which result is listed for CG3108 [DRSC18280]?
E2F firefly, rep 1: 8235; Renilla normaliser, rep 1: 752; call: inactive
